# From patent US6939534B2, “Method to treat pulmonary hypoplasia in the newborn” (GenoMed, LLC, priority 2001, dated 2005)
# Experiment: Direct radioimmunoassay of EGF content of neonatal urine
# Design: species or system human
substance,measurement,setting,value
epidermal growth factor [EGF],EGF content of neonatal urine by direct radioimmunoassay,day 1,30.1 ± 9.0 ng/mL
same,EGF content of neonatal urine by direct radioimmunoassay,day 3,40.0 ± 11.3 ng/mL
